Measured values as given in PMC9167300.
These are yes or no findings as the source states them, for the method shown. In cells and extracts the contact can be indirect. Some entries that bind do so weakly or less than the wild type.

By UniProt entry, the sequences of proteins in these tests, tags left out. Where a name states a change or a piece, a line headed by the entry shows the natural chain unless it says otherwise. Chains listed by the source or under a name are the forms on record and can include a tag or linker. Residues count along the entry.
UniProt Q8R455: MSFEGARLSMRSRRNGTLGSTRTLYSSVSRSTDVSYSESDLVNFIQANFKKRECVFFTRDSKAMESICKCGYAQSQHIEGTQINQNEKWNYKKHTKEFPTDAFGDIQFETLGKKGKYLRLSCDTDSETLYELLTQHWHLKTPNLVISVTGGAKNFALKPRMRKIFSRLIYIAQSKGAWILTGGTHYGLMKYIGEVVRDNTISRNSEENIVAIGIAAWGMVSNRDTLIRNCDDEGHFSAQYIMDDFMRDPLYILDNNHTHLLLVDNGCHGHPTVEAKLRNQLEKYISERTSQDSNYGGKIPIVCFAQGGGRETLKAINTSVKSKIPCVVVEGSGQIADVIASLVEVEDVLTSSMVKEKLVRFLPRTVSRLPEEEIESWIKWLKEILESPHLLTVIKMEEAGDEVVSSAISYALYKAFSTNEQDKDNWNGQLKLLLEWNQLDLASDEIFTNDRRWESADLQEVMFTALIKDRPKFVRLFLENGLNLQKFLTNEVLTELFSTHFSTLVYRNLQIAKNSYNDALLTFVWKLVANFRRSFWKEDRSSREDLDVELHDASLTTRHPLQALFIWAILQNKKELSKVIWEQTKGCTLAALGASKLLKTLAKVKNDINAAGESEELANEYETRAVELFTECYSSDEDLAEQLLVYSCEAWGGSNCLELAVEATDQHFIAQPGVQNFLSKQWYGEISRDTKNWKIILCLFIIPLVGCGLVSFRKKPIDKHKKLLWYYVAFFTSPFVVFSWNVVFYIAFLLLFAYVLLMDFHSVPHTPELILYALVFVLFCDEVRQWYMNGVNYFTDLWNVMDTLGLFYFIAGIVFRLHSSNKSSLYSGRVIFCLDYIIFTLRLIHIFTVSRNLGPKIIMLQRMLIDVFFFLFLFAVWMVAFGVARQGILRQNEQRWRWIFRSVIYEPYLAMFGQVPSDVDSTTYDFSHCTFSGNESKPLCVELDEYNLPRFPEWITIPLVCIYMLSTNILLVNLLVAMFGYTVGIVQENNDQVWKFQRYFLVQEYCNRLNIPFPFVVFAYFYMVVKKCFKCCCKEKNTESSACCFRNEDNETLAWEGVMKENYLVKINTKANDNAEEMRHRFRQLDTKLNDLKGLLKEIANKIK
Flag-tagged N-terminus of TRPM8 (Flag-M8N): residues 1-691 of Q8R455
GST-tagged C-terminus of TRPM8 (GST-M8C): residues 980-1104 of Q8R455
UniProt Q7Z2W7: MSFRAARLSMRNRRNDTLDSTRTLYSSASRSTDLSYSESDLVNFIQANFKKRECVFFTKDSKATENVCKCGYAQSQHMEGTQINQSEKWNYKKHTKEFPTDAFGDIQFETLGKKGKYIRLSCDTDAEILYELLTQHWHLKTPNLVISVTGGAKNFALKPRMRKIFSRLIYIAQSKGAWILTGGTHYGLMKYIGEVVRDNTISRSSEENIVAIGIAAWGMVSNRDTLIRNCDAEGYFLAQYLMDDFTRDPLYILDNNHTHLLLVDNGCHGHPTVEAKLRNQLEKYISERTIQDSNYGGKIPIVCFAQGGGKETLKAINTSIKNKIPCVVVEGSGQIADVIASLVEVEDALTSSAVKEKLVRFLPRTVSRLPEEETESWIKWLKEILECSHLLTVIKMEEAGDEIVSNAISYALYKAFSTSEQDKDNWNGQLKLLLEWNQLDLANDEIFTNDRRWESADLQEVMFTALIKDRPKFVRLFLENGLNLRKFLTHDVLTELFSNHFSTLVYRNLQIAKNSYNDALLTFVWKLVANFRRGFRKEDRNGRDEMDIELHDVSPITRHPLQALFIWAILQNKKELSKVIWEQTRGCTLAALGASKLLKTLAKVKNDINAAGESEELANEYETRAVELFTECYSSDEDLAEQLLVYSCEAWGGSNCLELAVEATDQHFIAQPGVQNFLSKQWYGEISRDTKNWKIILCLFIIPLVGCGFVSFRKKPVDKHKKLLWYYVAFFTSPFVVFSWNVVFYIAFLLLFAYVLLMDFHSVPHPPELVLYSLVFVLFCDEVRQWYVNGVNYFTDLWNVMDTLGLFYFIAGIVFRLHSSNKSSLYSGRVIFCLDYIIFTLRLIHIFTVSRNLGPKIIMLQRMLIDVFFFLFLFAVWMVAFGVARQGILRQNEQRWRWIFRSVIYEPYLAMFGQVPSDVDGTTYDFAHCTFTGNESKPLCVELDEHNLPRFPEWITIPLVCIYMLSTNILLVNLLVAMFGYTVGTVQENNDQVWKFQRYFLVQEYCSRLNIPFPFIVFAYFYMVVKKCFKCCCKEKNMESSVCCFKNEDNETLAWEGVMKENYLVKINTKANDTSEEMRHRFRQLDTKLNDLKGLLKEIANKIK
UniProt P63104: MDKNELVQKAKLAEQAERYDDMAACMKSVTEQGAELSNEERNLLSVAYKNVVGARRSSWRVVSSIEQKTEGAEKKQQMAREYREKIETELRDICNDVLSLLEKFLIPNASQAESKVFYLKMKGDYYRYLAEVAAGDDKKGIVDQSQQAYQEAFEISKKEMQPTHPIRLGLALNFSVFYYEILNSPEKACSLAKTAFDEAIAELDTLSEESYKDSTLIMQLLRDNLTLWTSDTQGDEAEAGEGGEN
UniProt P51451: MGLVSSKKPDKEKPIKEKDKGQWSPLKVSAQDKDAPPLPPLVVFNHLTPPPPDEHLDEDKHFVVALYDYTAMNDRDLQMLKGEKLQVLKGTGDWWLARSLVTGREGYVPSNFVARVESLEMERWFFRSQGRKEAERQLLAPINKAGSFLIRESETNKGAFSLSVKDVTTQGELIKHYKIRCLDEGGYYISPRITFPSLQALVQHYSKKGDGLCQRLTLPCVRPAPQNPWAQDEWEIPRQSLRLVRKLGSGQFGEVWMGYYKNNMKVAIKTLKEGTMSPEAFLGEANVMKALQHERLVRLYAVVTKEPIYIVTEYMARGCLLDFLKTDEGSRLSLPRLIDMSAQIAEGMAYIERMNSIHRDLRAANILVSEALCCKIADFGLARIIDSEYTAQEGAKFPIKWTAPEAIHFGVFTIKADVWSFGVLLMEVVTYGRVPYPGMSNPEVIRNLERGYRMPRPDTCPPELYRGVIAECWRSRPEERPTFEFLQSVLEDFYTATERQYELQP
UniProt P06239: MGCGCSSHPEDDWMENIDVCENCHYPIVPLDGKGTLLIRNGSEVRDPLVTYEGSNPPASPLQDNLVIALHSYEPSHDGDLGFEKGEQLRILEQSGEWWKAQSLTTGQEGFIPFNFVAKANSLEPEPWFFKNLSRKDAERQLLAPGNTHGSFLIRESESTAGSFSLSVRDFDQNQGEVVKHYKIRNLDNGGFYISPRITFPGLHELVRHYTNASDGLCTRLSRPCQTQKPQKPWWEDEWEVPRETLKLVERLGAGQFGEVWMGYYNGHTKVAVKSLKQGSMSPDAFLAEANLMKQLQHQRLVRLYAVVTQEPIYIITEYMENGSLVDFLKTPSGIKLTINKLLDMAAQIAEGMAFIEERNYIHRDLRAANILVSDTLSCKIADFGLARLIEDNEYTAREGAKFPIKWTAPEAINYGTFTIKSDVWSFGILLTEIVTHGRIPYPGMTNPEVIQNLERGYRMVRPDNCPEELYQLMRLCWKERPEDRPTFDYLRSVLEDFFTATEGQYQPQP

Assays:
[1] = target: Flag-tagged full-length TRPM8 (Flag-TRPM8) (rat) (UniProt Q8R455); assay: co-IP; HEK293T cells transfected; IP with anti-Flag (or anti-HA) antibody; with or without HA-LCK, siLCK or 10 μM PP2; Western blot
[2] = target: Flag-tagged mutant TRPM8-Y1022F (Flag-M8-Y1022F) (rat) (UniProt Q8R455); assay: as above
[3] = target: Flag-tagged full-length TRPM8 (Flag-TRPM8) (rat) (UniProt Q8R455); assay: co-IP; PANC-1 cells transfected with Flag-TRPM8 with HA-LCK, control vector or siLCK; IP with anti-Flag antibody; Western blot for 14-3-3ζ
[4] = target: Flag-tagged mutant TRPM8-Y1022F (Flag-M8-Y1022F) (rat) (UniProt Q8R455); assay: cross-linking; PANC-1 cells transfected, treated with 1 μM DSS for 30 min before harvest; lysates on Western blot; with or without HA-LCK, siLCK, GFP-14-3-3ζ or si14-3-3ζ
[5] = target: GST-tagged C-terminus of TRPM8 (GST-M8C) (rat) (UniProt Q8R455); assay: pull-down; purified GST-M8C on glutathione beads incubated with lysates of transfected HEK293T cells; washes with 0.5% Nonidet P-40, 50 mM Tris/HCl, 150 mM NaCl, 1 mM EDTA; Western blot; only the target purified
[6] = target: Flag-tagged N-terminus of TRPM8 (Flag-M8N) (rat) (UniProt Q8R455); assay: co-IP; HEK293T cells transfected; IP with anti-Flag (or anti-HA) antibody; with or without HA-LCK, siLCK or 10 μM PP2; Western blot
[7] = target: Flag-tagged mutant TRPM8-Y1022F (Flag-M8-Y1022F) (rat) (UniProt Q8R455); assay: co-IP; AsPC-1 cells co-transfected with Flag- and GFP-tagged TRPM8; IP with anti-Flag antibody; with or without HA-LCK, PP2, siLCK or si14-3-3ζ; Western blot
[8] = target: Flag-tagged full-length TRPM8 (Flag-TRPM8) (rat) (UniProt Q8R455); assay: co-IP; HeLa cells co-transfected; IP with anti-HA or anti-Flag antibody (reciprocal); Western blot
[9] = target: GFP-tagged C-terminus of TRPM8 (GFP-M8C) (rat) (UniProt Q8R455); assay: as above
[10] = target: Flag-tagged C-terminus of TRPM8 (M8-C) (rat) (UniProt Q8R455); assay: co-IP; HEK293T cells transfected; IP with anti-Flag (or anti-HA) antibody; with or without HA-LCK, siLCK or 10 μM PP2; Western blot
[11] = target: TRPM8, endogenous in PANC-1 cells (human (endogenous in PANC-1)) (UniProt Q7Z2W7); assay: co-IP; native PANC-1 cells, endogenous proteins; Western blot
[12] = target: 14-3-3ζ, endogenous (human (endogenous in PANC-1, HEK293T and MCF7)) (UniProt P63104); assay: as above

## 14-3-3ζ, endogenous (from UniProt P63104 1-245)
[1]
  binding: binds
[2]
  binding: binds
[3]
  binding: binds

## Flag-tagged mutant TRPM8-Y1022F (Flag-M8-Y1022F) (from UniProt Q8R455 1-1104)
[4]
  binding: binds

## GFP-fused 14-3-3ζ (GFP-14-3-3ζ) (from UniProt P63104 1-245)
[5]
  binding: binds

## GFP-tagged C-terminus of TRPM8 (GFP-M8C) (from UniProt Q8R455 980-1104) (domain or fragment)
[6]
  binding: binds

## GFP-tagged wild-type TRPM8 (GFP-TRPM8) (from UniProt Q8R455 1-1104)
[7]
  binding: binds

## HA-tagged BLK (HA-BLK) (from UniProt P51451 1-505) (enzyme)
[8]
  binding: binds
[9]
  binding: binds
[5]
  binding: binds

## HA-tagged LCK (HA-LCK) (from UniProt P06239 1-509) (enzyme)
[8]
  binding: binds
[9]
  binding: binds
[10]
  binding: binds
[6]
  binding: binds
[5]
  binding: binds

## LCK, endogenous (from UniProt P06239 1-509) (enzyme)
[11]
  binding: binds

## TRPM8, endogenous in PANC-1 cells (from UniProt Q7Z2W7 1-1104)
[12]
  binding: binds
